The record followed here is patent US20230310623.

By UniProt entry, the sequences of proteins in these tests, tags left out. Chains listed by the source or under a name are the forms on record and can include a tag or linker.
UniProt Q01196, other isoform, or with tags, fused parts or gaps: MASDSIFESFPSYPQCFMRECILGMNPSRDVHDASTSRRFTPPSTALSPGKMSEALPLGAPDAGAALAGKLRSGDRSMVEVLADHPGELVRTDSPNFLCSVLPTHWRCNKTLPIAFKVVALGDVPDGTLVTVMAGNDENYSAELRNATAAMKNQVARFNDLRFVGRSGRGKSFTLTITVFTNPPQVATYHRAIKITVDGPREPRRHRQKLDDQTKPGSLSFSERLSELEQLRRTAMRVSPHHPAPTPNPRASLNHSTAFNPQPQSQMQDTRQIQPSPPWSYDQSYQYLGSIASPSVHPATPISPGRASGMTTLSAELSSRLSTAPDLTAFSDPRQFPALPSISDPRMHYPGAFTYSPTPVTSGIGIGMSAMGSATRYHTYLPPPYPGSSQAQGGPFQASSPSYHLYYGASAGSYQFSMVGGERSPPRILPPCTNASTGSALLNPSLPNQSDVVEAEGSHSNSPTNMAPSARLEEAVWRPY

For at least one entry, the source does not settle the construct or the ends of the probe. Where cells or extracts were used, other partners may take part. The comparison behind a weaker result is the experiment's own reference, which may not be listed here.

The target of this data set is RUNX1 (endogenous) (Homo sapiens) (UniProt Q01196). In words: pull-down. The following applies: protein in an extract, label: 5' biotin on forward strand.

For “CAGTGCTCTCACAGAGCTAC (double strand) [PrPr Runx1 mt oligo]”, the binding result (drastic reduction vs wild type, variant of PrPr Runx1 wt oligo) was “binds more weakly”.
Consider “CAGTGGTGTGGCAGAGCTAC (double strand) [PrPr Runx1 wt oligo]”, for which, where the note is “nuclear extract, 100 mM KCl, 5 mM MgCl2, immunoblot”, the binding result was “binds”.
As for “AGGCTCTCACAGCTCTCAACGT (double strand) [URE Runx1 mt oligo]”, the binding result (drastic reduction vs wild type, variant of URE Runx1 wt oligo) was “binds more weakly”.
On to “AGGGTGTGGCAGGTGTGGACGT (double strand) [URE Runx1 wt oligo]”, for which the binding result (nuclear extract, 100 mM KCl, 5 mM MgCl2, 4 C pre-clear, immunoblot) is “binds”.
